# Results as given in PubChem BioAssay (EPA / NIEHS).
# Chains of the proteins cited; added tags and fusions are not shown. Lines headed by an entry give the natural chain unless they say otherwise; changes in a name come on top.
# UniProt P33261, whole entry, looked up: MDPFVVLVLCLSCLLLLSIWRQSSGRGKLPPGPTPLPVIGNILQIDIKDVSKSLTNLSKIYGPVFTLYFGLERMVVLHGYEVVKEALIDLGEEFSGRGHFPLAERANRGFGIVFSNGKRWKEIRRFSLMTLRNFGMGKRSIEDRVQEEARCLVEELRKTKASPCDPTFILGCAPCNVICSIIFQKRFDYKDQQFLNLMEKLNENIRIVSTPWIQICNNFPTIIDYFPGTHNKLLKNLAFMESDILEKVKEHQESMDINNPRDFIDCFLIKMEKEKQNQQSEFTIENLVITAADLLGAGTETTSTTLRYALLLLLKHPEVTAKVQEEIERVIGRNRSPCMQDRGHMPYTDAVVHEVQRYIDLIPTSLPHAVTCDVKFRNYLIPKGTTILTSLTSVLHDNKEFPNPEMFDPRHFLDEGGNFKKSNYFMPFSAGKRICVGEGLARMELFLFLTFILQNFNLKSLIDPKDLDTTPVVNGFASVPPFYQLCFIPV
# UniProt P11712, whole entry, looked up: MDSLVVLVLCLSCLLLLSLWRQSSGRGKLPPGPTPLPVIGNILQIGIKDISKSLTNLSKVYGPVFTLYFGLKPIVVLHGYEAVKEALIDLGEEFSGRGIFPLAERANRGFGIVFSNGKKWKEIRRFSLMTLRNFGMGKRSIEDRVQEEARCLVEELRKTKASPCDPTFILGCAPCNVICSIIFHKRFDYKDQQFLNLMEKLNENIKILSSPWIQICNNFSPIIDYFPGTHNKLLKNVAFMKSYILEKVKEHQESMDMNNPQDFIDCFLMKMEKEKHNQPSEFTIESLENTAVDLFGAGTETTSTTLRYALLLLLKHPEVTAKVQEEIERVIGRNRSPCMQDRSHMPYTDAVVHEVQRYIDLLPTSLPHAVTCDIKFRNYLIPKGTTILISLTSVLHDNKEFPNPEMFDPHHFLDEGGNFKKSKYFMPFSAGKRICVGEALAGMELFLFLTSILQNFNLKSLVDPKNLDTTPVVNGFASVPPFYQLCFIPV
# UniProt Q9UNQ0: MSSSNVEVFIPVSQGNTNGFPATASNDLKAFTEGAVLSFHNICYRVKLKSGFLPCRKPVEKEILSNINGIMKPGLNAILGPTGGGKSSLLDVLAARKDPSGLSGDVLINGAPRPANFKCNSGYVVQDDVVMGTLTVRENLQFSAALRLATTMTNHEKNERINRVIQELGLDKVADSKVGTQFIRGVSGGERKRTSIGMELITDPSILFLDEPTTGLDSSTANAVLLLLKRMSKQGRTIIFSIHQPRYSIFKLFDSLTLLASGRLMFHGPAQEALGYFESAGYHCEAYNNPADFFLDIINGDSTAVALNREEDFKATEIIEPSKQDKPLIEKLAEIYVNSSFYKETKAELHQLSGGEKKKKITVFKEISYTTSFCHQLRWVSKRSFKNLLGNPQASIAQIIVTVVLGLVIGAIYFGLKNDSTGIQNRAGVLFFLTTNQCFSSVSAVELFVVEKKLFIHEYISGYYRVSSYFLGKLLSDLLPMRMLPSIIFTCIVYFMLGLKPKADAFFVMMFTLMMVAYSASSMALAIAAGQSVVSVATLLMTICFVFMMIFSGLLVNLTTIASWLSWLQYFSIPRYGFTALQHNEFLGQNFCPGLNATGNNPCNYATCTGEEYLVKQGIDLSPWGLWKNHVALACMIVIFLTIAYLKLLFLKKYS
# UniProt P04406: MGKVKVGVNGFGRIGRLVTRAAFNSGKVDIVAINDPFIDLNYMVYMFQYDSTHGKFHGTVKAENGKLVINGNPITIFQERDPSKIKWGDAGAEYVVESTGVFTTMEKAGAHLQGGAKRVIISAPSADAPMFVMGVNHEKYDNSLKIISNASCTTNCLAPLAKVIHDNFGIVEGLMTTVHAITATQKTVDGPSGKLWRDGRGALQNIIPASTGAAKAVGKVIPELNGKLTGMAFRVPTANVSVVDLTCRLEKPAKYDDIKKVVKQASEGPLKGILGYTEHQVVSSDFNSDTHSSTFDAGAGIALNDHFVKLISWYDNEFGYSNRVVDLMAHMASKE
# UniProt P08684, whole entry, looked up: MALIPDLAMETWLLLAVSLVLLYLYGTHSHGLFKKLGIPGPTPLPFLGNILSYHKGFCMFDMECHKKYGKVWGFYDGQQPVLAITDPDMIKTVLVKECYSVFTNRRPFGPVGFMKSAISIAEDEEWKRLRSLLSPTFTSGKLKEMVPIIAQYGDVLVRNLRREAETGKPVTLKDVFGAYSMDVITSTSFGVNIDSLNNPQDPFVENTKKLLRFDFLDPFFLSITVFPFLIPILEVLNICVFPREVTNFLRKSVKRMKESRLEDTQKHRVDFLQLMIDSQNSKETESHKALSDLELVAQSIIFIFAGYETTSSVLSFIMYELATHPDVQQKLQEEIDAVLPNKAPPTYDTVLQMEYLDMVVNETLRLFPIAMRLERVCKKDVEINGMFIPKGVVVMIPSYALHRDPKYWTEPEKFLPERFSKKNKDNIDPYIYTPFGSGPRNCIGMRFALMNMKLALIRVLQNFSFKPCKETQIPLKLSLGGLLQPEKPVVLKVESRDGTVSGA
# Inconclusive results, whose numbers are uncertain, are shown with a selection of clear calls. For some of these results: Potencies beside an inconclusive call are fits to weak or partial responses and may not hold up. The source made the active and inactive calls. Rule for the calls: active = hit-call score of the fitted dose curve at least 0.9, where 1 is the maximum; inconclusive = response in the unintended direction; inactive = score below 0.9.
# Columns and labels:
# [1] = read-out: Cytochrome P450 2C19 (Homo sapiens) (UniProt P33261); experiment: CLD_CYP2C19_24hr: CellzDirect (CLD) Gene Expression Assay for xenobiotic metabolism (CYP2C19) at 24 hours (AID 2283687);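 for outcome: activity means mRNA induction above DMSO vehicle baseline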
# Outline: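 CYP2C19 mRNA was quantified by qNPA chemiluminescence after 24 h of daily dosing of cultured human primary hepatocytes from two donors; vehicle was 0.2% DMSO, and increases over DMSO baseline were fitted.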
# [2] = read-out: Cytochrome P450 2C9 (Homo sapiens) (UniProt P11712); experiment: CLD_CYP2C9_24hr: CellzDirect (CLD) Gene Expression Assay for xenobiotic metabolism (CYP2C9) at 24 hours (AID 2283688);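 for AC50: potency for induction meaning a rise in CYP2C9 mRNA over DMSO vehicle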
# Outline: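 Induction of CYP2C9 mRNA was quantified by quantitative nuclease protection assay (chemiluminescence), gain of signal versus 0.2% DMSO vehicle, 24 h after dosing. Human primary hepatocytes (two donors) received fresh chemical daily at multiple concentrations; morphology-based cytotoxicity flagged yes/no.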
# [3] = read-out: organic anion transporter (SLCO1B1), SLCO1B1 (gene 10599); experiment: CLD_SLCO1B1_24hr: CellzDirect (CLD) Gene Expression Assay for organic anion transporter (SLCO1B1) at 24 hours (AID 2283690)
# Outline: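 SLCO1B1 mRNA induction read at 24 h by quantitative nuclease protection assay (chemiluminescence), analyzed against DMSO baseline. Human hepatocyte cultures from separate donors received fresh dosing solutions daily; vehicle 0.2% DMSO; cytotoxicity flagged by phase-contrast morphology.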
# [4] = read-out: alkyl and aryl transferase (GSTA2), GSTA2 (gene 2939); experiment: CLD_GSTA2_24hr: CellzDirect (CLD) Gene Expression Assay for alkyl and aryl transferase (GSTA2) at 24 hours (AID 2283693)
# Outline: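 GSTA2 transcript levels were quantified by quantitative nuclease protection assay in primary human hepatocytes 24 h after daily dosing with fresh solutions at multiple concentrations; 0.2% DMSO vehicle as baseline, cytotoxicity flagged morphologically.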
# [5] = read-out: ABC Transporter (ABCB1), ABCB1 (gene 5243); experiment: CLD_ABCB1_48hr: CellzDirect (CLD) Gene Expression Assay for ABC Transporter (ABCB1) at 48 hours (AID 2283695);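 for AC50: potency for induction meaning increase of mRNA over DMSO vehicle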
# Outline: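 ABCB1 mRNA was measured by quantitative nuclease protection assay (chemiluminescence) 48 h after dosing. Human hepatocyte cultures from two separate donors received fresh dosing solutions daily for two days, with 0.2% DMSO as vehicle. Positive-direction fit against DMSO.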
# [6] = CLD_ACTIN_48hr: CellzDirect (CLD) Gene Expression Assay for Baseline Control (Actin) at 48 hours (AID 2283702)
# Outline: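 Background-control actin mRNA read by qNPA chemiluminescence at 48 h. Human hepatocyte cultures from two donors received fresh multi-concentration chemical doses daily for two days; 0.2% DMSO served as vehicle baseline.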
# [7] = read-out: Broad substrate specificity ATP-binding cassette transporter ABCG2 (Homo sapiens) (UniProt Q9UNQ0); experiment: CLD_ABCG2_48hr: CellzDirect (CLD) Gene Expression Assay for ABC Transporter (ABCG2) at 48 hours (AID 2283704);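 for AC50: potency for induction of ABCG2 mRNA above the DMSO baseline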
# Outline: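 ABCG2 transcript measured at 48 h by quantitative nuclease protection (chemiluminescent) and fitted for increase relative to 0.2% DMSO. Hepatocyte cultures from separate donors got fresh compound daily over two days; morphology annotated cytotoxicity.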
# [8] = read-out: Glyceraldehyde-3-phosphate dehydrogenase (Homo sapiens) (UniProt P04406); experiment: CLD_GAPDH_48hr: CellzDirect (CLD) Gene Expression Assay for Baseline Control (Glyceraldehyde 3-phosphate dehydrogenase) at 48 hours (AID 2283706);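 for outcome: active means higher GAPDH mRNA than DMSO vehicle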
# Outline: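 GAPDH baseline-control readout: qNPA chemiluminescent mRNA quantitation in human liver primary cells 48 h after daily dosing on two consecutive days, vehicle 0.2% DMSO; gain of signal fitted against DMSO, cytotoxicity flagged by phase-contrast morphology.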
# [9] = read-out: organic anion transporter (SLCO1B1), SLCO1B1 (gene 10599); experiment: CLD_SLCO1B1_48hr: CellzDirect (CLD) Gene Expression Assay for organic anion transporter (SLCO1B1) at 48 hours (AID 2283707)
# Outline: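 SLCO1B1 transcript quantified by qNPA with chemiluminescent readout after 48 h of once-daily chemical exposure. Cultured human primary hepatocytes came from two donors, with 0.2% DMSO vehicle; positive-direction fitting against DMSO, cytotoxicity flagged by morphology.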
# [10] = read-out: alkyl and aryl transferase (GSTA2), GSTA2 (gene 2939); experiment: CLD_GSTA2_48hr: CellzDirect (CLD) Gene Expression Assay for alkyl and aryl transferase (GSTA2) at 48 hours (AID 2283708);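 note: active means mRNA induction above DMSO vehicle baseline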
# Outline: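 GSTA2 mRNA quantified by qNPA chemiluminescence in human primary hepatocyte lysates after 48 h of daily fresh chemical dosing. Increases fitted against 0.2% DMSO vehicle baseline; cytotoxicity from morphology annotated yes/no.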
# [11] = read-out: Cytochrome P450 3A4 (Homo sapiens) (UniProt P08684); experiment: CLD_CYP3A4_24hr: CellzDirect (CLD) Gene Expression Assay for xenobiotic metabolism (CYP3A4) at 24 hours (AID 2283689)
# Outline: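 CYP3A4 mRNA induction read by quantitative nuclease protection (chemiluminescence) 24 hr after dosing. Cultured human hepatocytes (two donor preparations) treated daily, vehicle 0.2% DMSO; phase-contrast morphology annotates cytotoxicity.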
# [12] = read-out: HMG-CoA synthase (HMGCS2), HMGCS2 (gene 3158); experiment: CLD_HMGCS2_24hr: CellzDirect (CLD) Gene Expression Assay for HMG-CoA synthase (HMGCS2) at 24 hours (AID 2283691)
# Outline: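 qNPA with S1 nuclease digestion and chemiluminescent detection gave HMGCS2 transcript levels, fitted upward against 0.2% DMSO vehicle. Cultured human hepatocytes (two donors) received fresh compound daily and were harvested at 24 h; phase-contrast morphology flagged cytotoxicity.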
# [13] = read-out: sulfotransferase (SULT2A), SULT2A1 (gene 6822); experiment: CLD_SULT2A_24hr: CellzDirect (CLD) Gene Expression Assay for sulfotransferase (SULT2A) at 24 hours (AID 2283694);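 note: potency for increased SULT2A1 mRNA level as induction over DMSO baseline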
# Outline: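 mRNA is measured by qNPA: probe hybridisation, S1 nuclease digestion, chemiluminescence, in lysates from human primary hepatocytes harvested 24 h after daily dosing. Vehicle was 0.2% DMSO. Phase-contrast microscopy flagged cytotoxicity (yes/no).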
# [14] = read-out: ABC Transporter (ABCB11), ABCB11 (gene 8647); experiment: CLD_ABCB11_48hr: CellzDirect (CLD) Gene Expression Assay for ABC Transporter (ABCB11) at 48 hours (AID 2283697)
# Outline: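 Induction of ABCB11 mRNA relative to 0.2% DMSO, measured at 48 h by qNPA chemiluminescence. Cultured human hepatocytes (two donors) received fresh dosing solutions at several concentrations on two consecutive days.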
# [15] = read-out: Cytochrome P450 2C19 (Homo sapiens) (UniProt P33261); experiment: CLD_CYP2C19_48hr: CellzDirect (CLD) Gene Expression Assay for xenobiotic metabolism (CYP2C19) at 48 hours (AID 2283700);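 for outcome: fitted upward so actives raise CYP2C19 mRNA above the 0.2% DMSO vehicle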
# Outline: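 CYP2C19 mRNA induction read by chemiluminescent quantitative nuclease protection assay after 48 h, with fresh compound added daily for two days to cultured human liver hepatocytes. Activity fitted upward against 0.2% DMSO vehicle.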
# [16] = read-out: Broad substrate specificity ATP-binding cassette transporter ABCG2 (Homo sapiens) (UniProt Q9UNQ0); experiment: CLD_ABCG2_24hr: CellzDirect (CLD) Gene Expression Assay for ABC Transporter (ABCG2) at 24 hours (AID 2283685)
# Outline: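 ABCG2 mRNA induction, read as gain of chemiluminescent signal over 0.2% DMSO, was measured by quantitative nuclease protection at 24 h. Cultured human liver hepatocytes were given fresh dosing solutions of test chemicals at several concentrations each day.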
# [17] = read-out: Glyceraldehyde-3-phosphate dehydrogenase (Homo sapiens) (UniProt P04406); experiment: CLD_GAPDH_24hr: CellzDirect (CLD) Gene Expression Assay for Baseline Control (Glyceraldehyde 3-phosphate dehydrogenase) at 24 hours (AID 2283692)
# Outline: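 GAPDH baseline-control readout: qNPA chemiluminescent mRNA signal in human primary hepatocytes harvested 24 h after daily dosing, normalised to 0.2% DMSO with positive fitting direction; cytotoxicity annotated by phase-contrast morphology.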
structure (smiles),measurement,setting,value
Nc1c(Cl)c(Cl)nc(C(=O)O)c1Cl,outcome,[1],inactive
same,outcome,[2],inactive
same,AC50,[3],inconclusive: 20 µM
same,AC50,[4],inconclusive: 20 µM
same,AC50,[5],inconclusive: 20 µM
same,outcome,[6],inactive
same,AC50,[7],inconclusive: 20 µM
same,AC50,[8],inconclusive: 3.97 µM
same,outcome,[9],inactive
same,AC50,[10],inconclusive: 20 µM
CCCN(CCOc1c(Cl)cc(Cl)cc1Cl)C(=O)n1ccnc1,AC50,[1],inconclusive: 2.55 µM
same,AC50,[2],inconclusive: 1.28 µM
same,AC50,[11],active: 0.57 µM
same,AC50,[3],inconclusive: 1.89 µM
same,AC50,[12],inconclusive: 3.58 µM
same,AC50,[4],inconclusive: 1.9 µM
same,AC50,[13],inconclusive: 36.2 µM
same,AC50,[5],active: 20 µM
same,AC50,[14],inconclusive: 1.9 µM
same,AC50,[15],inconclusive: 7.7 µM
same,AC50,[6],inconclusive: 0.418 µM
same,outcome,[8],inactive
same,outcome,[10],inactive
COC(=O)NC(=S)Nc1ccccc1NC(=S)NC(=O)OC,outcome,[16],inactive
same,AC50,[12],inconclusive: 20 µM
same,AC50,[4],inconclusive: 20 µM
same,outcome,[14],inactive
same,AC50,[15],inconclusive: 20 µM
same,outcome,[6],inactive
same,AC50,[8],inconclusive: 4.72 µM
same,outcome,[9],inactive
COc1nn(CSP(=S)(OC)OC)c(=O)s1,AC50,[1],inconclusive: 20 µM
same,outcome,[2],inactive
same,AC50,[17],inconclusive: 3.97 µM
same,AC50,[4],inconclusive: 20 µM
same,AC50,[5],inconclusive: 2.3 µM
same,AC50,[14],inconclusive: 10.6 µM
same,AC50,[15],inconclusive: 9.16 µM
same,AC50,[6],inconclusive: 10.8 µM
same,AC50,[7],inconclusive: 3.97 µM
same,AC50,[8],inconclusive: 20 µM
same,AC50,[9],inconclusive: 3.12 µM
same,AC50,[10],inconclusive: 3.97 µM
CCOc1nc(F)cc2nc(S(=O)(=O)Nc3c(Cl)cccc3Cl)nn12,AC50,[1],inconclusive: 0.000905 µM
same,AC50,[3],inconclusive: 3.97 µM
same,outcome,[12],inactive
same,AC50,[4],inconclusive: 20 µM
same,outcome,[5],inactive
same,AC50,[14],inconclusive: 20 µM
same,outcome,[15],inactive
same,AC50,[6],inconclusive: 6.16 µM
same,AC50,[8],inconclusive: 20 µM
same,AC50,[9],inconclusive: 20 µM
same,AC50,[10],inconclusive: 2.01 µM
CCN(CC)C(=O)SCc1ccc(Cl)cc1,AC50,[2],inconclusive: 0.114 µM
same,AC50,[12],inconclusive: 0.448 µM
same,AC50,[17],inconclusive: 20 µM
same,outcome,[4],inactive
same,AC50,[14],inconclusive: 0.357 µM
same,outcome,[15],inactive
same,AC50,[8],inconclusive: 7.1 µM
[2H]C1([2H])[n+]2ccccc2-c2cccc[n+]2C1([2H])[2H],AC50,[2],inconclusive: 0.0004 µM
same,AC50,[11],inconclusive: 20 µM
same,outcome,[12],inactive
same,outcome,[17],inactive
same,outcome,[4],inactive
same,AC50,[13],inconclusive: 0.0004 µM
same,AC50,[5],inconclusive: 20 µM
same,AC50,[15],inconclusive: 20 µM
same,AC50,[6],inconclusive: 20 µM
same,outcome,[7],inactive
same,AC50,[9],inconclusive: 20 µM
CCOCN(C(=O)CCl)c1c(C)cccc1CC,outcome,[2],inactive
same,AC50,[12],inconclusive: 20 µM
same,outcome,[17],inactive
same,outcome,[5],inactive
same,outcome,[14],inactive
same,AC50,[15],inconclusive: 8.82 µM
same,outcome,[6],inactive
same,AC50,[8],inconclusive: 20 µM
same,AC50,[9],inconclusive: 20 µM
same,AC50,[10],active: 20 µM
CCc1nn(C)c(C(=O)NCc2ccc(C(C)(C)C)cc2)c1Cl,AC50,[2],inconclusive: 0.0467 µM
same,AC50,[17],inconclusive: 35.7 µM
same,outcome,[4],inactive
same,AC50,[13],active: 3.71 µM
same,AC50,[14],active: 37 µM
same,AC50,[15],inconclusive: 1.9 µM
same,AC50,[6],inconclusive: 35.6 µM
same,AC50,[8],inconclusive: 33.1 µM
same,AC50,[9],inconclusive: 1.88 µM
